{
  "sequences": {"note": "Chains of the proteins cited; added tags and fusions are not shown. Lines headed by an entry give the natural chain unless they say otherwise; changes in a name come on top.", "UniProt Q6NSR8": "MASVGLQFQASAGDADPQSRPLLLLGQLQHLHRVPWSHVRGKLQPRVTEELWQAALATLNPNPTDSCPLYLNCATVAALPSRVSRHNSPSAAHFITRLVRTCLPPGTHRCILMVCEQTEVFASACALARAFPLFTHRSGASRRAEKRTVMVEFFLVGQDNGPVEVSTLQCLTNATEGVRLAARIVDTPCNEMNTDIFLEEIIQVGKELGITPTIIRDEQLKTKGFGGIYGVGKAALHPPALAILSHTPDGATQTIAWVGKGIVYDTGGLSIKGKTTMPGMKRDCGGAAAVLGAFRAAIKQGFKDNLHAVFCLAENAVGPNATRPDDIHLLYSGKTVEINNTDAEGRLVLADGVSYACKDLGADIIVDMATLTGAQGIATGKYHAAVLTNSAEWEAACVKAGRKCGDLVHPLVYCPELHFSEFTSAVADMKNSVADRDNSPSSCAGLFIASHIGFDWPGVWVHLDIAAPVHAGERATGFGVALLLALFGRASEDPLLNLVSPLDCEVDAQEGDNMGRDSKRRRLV", "UniProt Q60787": "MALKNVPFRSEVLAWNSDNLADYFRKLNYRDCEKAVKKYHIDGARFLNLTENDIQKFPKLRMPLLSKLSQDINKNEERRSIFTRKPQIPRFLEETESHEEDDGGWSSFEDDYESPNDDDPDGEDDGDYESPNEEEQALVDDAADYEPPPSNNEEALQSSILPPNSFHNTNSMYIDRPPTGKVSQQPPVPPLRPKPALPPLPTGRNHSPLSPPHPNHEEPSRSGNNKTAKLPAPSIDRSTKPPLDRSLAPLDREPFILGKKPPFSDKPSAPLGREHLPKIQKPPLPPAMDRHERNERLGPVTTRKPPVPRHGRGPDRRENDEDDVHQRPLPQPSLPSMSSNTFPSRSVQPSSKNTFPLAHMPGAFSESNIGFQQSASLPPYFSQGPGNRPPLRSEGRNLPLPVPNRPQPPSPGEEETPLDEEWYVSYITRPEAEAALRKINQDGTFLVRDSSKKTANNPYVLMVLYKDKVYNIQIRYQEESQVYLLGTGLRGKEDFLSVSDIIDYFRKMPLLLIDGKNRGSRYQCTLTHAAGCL", "UniProt Q62440": "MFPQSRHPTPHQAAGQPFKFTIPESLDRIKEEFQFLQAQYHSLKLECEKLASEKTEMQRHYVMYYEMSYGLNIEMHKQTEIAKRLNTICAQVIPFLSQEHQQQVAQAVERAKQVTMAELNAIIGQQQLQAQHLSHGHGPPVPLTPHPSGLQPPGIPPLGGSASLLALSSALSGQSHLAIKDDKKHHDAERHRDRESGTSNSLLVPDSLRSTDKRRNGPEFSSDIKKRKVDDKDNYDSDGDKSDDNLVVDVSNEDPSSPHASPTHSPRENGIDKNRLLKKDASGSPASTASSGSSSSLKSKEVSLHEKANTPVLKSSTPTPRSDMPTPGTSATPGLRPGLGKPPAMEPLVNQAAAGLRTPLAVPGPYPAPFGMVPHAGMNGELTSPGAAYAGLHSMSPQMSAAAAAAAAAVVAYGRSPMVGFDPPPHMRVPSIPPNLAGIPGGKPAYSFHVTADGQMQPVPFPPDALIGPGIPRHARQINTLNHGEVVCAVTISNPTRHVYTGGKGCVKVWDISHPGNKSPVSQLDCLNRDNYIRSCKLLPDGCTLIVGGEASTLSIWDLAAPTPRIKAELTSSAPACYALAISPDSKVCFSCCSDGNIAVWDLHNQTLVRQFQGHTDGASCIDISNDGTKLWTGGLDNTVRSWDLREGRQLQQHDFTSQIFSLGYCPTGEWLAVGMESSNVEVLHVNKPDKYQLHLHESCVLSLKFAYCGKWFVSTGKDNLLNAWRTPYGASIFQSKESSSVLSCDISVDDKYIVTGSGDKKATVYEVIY", "UniProt Q69ZW3": "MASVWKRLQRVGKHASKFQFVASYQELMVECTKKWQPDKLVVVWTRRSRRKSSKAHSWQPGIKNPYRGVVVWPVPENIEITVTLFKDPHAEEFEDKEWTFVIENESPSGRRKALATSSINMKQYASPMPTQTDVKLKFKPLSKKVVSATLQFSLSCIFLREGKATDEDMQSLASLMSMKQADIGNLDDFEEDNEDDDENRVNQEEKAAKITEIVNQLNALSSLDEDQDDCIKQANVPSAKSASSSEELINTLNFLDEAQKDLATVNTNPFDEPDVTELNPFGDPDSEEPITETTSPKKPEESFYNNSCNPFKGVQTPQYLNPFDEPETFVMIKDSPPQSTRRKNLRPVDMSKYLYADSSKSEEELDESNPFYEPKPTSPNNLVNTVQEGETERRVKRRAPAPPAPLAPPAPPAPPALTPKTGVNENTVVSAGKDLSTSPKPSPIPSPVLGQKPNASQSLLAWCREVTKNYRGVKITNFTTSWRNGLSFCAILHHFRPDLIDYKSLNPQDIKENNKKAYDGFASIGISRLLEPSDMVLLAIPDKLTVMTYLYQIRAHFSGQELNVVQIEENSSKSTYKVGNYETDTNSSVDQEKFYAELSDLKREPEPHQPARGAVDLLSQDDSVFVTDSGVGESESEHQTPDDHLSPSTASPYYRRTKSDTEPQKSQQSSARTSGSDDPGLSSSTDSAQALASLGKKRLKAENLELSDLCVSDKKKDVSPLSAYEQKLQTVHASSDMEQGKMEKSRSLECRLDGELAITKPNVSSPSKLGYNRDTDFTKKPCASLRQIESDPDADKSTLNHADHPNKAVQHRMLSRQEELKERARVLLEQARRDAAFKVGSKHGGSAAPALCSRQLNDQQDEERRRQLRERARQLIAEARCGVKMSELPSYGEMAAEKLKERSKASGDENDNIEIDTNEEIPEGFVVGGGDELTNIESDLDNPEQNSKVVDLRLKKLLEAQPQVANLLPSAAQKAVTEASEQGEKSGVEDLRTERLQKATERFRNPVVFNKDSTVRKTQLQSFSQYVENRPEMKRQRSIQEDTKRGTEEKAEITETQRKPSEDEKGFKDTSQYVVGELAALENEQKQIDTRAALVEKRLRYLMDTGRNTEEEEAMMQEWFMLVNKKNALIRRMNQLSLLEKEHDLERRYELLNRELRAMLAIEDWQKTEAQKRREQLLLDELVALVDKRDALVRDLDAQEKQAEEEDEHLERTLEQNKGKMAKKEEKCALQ", "UniProt Q61124": "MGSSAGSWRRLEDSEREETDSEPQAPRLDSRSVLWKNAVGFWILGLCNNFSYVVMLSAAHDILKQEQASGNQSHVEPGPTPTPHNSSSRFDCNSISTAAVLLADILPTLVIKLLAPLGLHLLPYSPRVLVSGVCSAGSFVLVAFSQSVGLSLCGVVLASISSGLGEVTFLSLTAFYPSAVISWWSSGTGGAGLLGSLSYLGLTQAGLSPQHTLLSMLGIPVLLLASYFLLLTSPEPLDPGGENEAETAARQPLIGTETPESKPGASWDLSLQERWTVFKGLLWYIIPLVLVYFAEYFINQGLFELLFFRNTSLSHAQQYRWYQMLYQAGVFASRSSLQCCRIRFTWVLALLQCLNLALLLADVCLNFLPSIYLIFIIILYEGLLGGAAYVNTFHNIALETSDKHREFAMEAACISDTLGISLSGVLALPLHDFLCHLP", "UniProt Q61391": "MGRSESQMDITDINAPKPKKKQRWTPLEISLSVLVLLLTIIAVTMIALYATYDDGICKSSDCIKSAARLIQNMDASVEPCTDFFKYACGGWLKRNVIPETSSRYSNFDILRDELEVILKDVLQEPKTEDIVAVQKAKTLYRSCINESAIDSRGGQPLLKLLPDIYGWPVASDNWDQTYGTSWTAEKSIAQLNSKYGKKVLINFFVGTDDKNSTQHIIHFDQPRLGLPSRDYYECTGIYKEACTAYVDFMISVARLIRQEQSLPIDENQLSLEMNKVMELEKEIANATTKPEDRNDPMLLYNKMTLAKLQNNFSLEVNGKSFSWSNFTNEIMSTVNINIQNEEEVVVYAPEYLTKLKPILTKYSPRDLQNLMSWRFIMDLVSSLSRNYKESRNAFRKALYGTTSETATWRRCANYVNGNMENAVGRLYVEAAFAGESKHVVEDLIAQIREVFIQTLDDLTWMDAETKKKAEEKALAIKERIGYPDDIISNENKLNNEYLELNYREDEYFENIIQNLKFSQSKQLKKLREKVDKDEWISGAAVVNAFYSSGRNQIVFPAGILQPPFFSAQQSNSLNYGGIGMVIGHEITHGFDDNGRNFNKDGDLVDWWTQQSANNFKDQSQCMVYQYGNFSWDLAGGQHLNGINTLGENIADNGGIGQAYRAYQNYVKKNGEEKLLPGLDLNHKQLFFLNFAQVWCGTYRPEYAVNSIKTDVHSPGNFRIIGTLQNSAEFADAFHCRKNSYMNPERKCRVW", "UniProt Q5SUF2": "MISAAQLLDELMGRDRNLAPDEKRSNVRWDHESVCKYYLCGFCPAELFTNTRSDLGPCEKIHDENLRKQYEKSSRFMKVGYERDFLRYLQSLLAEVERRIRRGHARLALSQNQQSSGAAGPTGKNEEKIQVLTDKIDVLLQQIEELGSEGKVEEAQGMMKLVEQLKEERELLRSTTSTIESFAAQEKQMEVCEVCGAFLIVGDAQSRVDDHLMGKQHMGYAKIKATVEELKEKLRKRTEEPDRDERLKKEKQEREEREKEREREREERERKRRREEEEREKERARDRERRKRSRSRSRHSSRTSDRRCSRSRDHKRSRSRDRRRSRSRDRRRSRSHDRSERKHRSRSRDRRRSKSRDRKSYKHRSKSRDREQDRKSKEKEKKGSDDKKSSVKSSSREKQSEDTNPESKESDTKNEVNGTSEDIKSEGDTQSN", "UniProt Q60597": "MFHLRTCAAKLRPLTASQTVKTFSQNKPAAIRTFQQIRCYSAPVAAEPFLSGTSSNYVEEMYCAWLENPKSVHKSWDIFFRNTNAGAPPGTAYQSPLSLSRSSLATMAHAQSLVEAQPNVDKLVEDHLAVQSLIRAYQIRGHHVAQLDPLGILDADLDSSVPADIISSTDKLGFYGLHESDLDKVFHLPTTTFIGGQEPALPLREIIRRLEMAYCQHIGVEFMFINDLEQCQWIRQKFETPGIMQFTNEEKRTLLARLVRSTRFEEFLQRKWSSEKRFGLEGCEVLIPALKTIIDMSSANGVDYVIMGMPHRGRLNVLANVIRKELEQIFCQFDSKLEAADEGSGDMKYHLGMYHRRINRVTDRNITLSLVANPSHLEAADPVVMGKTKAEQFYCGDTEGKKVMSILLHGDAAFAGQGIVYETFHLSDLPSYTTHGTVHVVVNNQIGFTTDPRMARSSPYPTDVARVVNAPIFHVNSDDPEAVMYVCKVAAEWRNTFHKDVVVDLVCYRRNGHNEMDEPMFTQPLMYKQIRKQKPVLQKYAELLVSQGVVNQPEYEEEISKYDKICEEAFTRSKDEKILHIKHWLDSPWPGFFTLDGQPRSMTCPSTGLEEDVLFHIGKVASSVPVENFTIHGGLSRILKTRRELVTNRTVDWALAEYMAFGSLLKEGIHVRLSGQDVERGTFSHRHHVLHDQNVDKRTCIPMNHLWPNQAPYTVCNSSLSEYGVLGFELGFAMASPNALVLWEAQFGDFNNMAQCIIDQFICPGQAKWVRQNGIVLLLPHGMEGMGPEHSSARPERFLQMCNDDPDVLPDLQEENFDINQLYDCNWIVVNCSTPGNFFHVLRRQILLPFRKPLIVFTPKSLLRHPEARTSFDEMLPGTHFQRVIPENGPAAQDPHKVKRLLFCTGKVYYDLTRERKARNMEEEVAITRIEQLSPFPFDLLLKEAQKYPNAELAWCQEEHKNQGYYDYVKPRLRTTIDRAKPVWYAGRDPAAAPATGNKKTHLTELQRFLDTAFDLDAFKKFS", "UniProt Q64674": "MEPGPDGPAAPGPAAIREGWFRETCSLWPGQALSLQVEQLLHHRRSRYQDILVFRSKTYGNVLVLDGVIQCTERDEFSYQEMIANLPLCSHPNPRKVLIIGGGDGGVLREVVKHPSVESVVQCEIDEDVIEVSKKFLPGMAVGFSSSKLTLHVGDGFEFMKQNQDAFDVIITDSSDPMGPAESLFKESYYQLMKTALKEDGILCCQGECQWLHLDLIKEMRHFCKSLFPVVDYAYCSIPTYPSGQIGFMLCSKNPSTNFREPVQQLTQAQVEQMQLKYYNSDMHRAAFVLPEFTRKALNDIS", "UniProt Q60738": "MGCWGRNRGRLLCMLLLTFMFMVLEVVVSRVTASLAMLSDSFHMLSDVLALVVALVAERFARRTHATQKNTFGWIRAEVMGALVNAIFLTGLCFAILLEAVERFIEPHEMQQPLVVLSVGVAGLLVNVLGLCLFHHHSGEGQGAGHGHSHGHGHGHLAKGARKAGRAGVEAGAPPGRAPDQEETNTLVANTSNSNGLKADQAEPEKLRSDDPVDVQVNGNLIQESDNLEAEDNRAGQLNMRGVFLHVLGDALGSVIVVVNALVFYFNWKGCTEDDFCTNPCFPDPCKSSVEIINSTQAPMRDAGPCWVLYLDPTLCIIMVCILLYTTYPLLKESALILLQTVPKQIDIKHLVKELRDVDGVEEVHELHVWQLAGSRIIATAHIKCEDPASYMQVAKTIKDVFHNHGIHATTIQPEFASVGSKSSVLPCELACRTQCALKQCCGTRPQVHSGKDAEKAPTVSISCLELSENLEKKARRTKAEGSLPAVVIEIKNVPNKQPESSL"},
  "source": "the supplement of paper PMC12819154",
  "about": "“High-throughput peptide-centric local stability assay extends protein–ligand identification to membrane proteins, tissues and bacteria” (Nature Structural & Molecular Biology, 2025)",
  "note": "Some of the results follow. Most entries show no effect beyond the scatter of the controls.",
  "data": [
    {"compound": "CN[C@@H]1C[C@H]2O[C@@](C)([C@@H]1OC)n1c3ccccc3c3c4c(c5c6ccccc6n2c5c31)C(=O)NC4 [staurosporine]", "assay": "log2 fold change of pooled soluble protein (PISA), ligand vs vehicle (log2 ratio); higher = more thermally stabilized", "settings": "ligand concentration: 20 uM; assay format: PISA pool 52.9/55.5/58.6 C", "values": [
      {"target": "UniProt Q6NSR8", "log2 fold change of pooled soluble protein": -0.0935},
      {"target": "UniProt Q64737", "log2 fold change of pooled soluble protein": 0.0457},
      {"target": "UniProt Q5YD48", "log2 fold change of pooled soluble protein": -0.00839},
      {"target": "UniProt Q60854", "log2 fold change of pooled soluble protein": 0.064},
      {"target": "UniProt Q60787", "log2 fold change of pooled soluble protein": -0.356},
      {"target": "UniProt Q62384", "log2 fold change of pooled soluble protein": 0.0392},
      {"target": "UniProt Q62465", "log2 fold change of pooled soluble protein": -0.0131},
      {"target": "UniProt Q61990", "log2 fold change of pooled soluble protein": -0.0867},
      {"target": "UniProt Q61730", "log2 fold change of pooled soluble protein": 0.143},
      {"target": "UniProt Q62188", "log2 fold change of pooled soluble protein": 0.0557},
      {"target": "UniProt Q60866", "log2 fold change of pooled soluble protein": -0.087},
      {"target": "UniProt Q69ZQ1", "log2 fold change of pooled soluble protein": -0.0455},
      {"target": "UniProt Q64705", "log2 fold change of pooled soluble protein": 0.168},
      {"target": "UniProt Q62419", "log2 fold change of pooled soluble protein": -0.202},
      {"target": "UniProt Q62440", "log2 fold change of pooled soluble protein": -0.0302},
      {"target": "UniProt Q61183", "log2 fold change of pooled soluble protein": -0.108},
      {"target": "UniProt Q61646", "log2 fold change of pooled soluble protein": -0.00844},
      {"target": "UniProt Q60739", "log2 fold change of pooled soluble protein": 0.0257},
      {"target": "UniProt Q69ZC8", "log2 fold change of pooled soluble protein": -0.0765},
      {"target": "UniProt Q62433", "log2 fold change of pooled soluble protein": -0.0821},
      {"target": "UniProt Q5SSH7", "log2 fold change of pooled soluble protein": 0.0537},
      {"target": "UniProt Q69ZW3", "log2 fold change of pooled soluble protein": 0.045},
      {"target": "UniProt Q61124", "log2 fold change of pooled soluble protein": 0.436},
      {"target": "UniProt Q61391", "log2 fold change of pooled soluble protein": -0.0485},
      {"target": "UniProt Q5SUF2", "log2 fold change of pooled soluble protein": 0.0102},
      {"target": "UniProt Q60597", "log2 fold change of pooled soluble protein": -0.0764},
      {"target": "UniProt Q6NVF9", "log2 fold change of pooled soluble protein": 0.0339},
      {"target": "UniProt Q61425", "log2 fold change of pooled soluble protein": -0.103},
      {"target": "UniProt Q61337", "log2 fold change of pooled soluble protein": 0.0654},
      {"target": "UniProt Q64674", "log2 fold change of pooled soluble protein": -0.0235},
      {"target": "UniProt Q69ZR2", "log2 fold change of pooled soluble protein": -0.139},
      {"target": "UniProt Q60738", "log2 fold change of pooled soluble protein": 0.0243},
      {"target": "UniProt Q61029", "log2 fold change of pooled soluble protein": -0.0841},
      {"target": "UniProt Q61598", "log2 fold change of pooled soluble protein": -0.0595},
      {"target": "UniProt Q60991", "log2 fold change of pooled soluble protein": 0.482},
      {"target": "UniProt Q60710", "log2 fold change of pooled soluble protein": -0.0331}
    ]}
  ]
}
